In this assay the target is T1, Symplekin (endogenous) (Drosophila melanogaster (endogenous in Dmel-2 cells)) (UniProt Q8MSU4).
T1 sequence: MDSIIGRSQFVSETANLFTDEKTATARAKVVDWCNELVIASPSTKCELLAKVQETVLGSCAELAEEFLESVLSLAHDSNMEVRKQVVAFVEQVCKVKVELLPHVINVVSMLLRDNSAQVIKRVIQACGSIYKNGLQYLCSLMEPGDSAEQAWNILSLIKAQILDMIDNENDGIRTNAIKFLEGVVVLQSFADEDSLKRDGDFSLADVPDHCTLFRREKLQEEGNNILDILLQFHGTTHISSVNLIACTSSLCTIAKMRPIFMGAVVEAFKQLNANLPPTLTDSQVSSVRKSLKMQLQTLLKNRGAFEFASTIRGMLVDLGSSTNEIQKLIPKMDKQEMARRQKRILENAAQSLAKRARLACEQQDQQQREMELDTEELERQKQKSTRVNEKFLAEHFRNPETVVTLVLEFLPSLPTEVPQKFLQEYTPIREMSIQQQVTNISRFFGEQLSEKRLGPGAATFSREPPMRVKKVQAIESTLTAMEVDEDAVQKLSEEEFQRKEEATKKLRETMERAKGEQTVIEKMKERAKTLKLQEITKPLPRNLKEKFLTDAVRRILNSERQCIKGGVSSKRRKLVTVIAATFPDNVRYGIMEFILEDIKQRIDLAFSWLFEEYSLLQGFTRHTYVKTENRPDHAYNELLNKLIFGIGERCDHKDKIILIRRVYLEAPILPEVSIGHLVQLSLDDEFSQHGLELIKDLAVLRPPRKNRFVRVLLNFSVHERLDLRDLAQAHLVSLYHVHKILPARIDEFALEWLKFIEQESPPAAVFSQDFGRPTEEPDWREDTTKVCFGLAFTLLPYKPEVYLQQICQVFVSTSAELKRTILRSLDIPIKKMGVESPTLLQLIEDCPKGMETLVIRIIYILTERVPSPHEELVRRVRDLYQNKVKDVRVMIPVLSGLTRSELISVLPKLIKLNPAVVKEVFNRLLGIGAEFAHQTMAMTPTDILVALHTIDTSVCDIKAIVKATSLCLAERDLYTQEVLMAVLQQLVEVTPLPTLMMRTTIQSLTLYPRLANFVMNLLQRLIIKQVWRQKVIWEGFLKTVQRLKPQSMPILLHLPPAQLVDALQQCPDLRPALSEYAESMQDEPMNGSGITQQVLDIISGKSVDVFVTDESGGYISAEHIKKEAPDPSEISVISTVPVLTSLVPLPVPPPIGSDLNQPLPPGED
The experiment in a line: affinity purification with mass spectrometry; endogenous Symplekin immunoprecipitated from crude Drosophila culture cell nuclear extract; bands cut from a Coomassie-stained SDS-PAGE gel and identified by MS; anti-Myc as control.

Results are given in words; binding and its absence hold for the method and conditions named. Binding seen in cells or lysates may run through a third protein. A yes stands for co-enrichment or nearness to the bait. Other partners may have been found.

B1: CPSF160 (endogenous) (protein, UniProt Q9V726 1-1455)
chain: MFSMCKQTHSATAVEFSIACRFFNNLDENLVVAGANVLKVYRIAPNVEASQRQKLNPSEMRLAPKMRLECLATYTLYGNVMSLQCVSLAGAMRDALLISFKDAKLSVLQHDPDTFALKTLSLHYFEEDDIRGGWTGRYFVPTVRVDPDSRCAVMLVYGKRLVVLPFRKDNSLDEIELADVKPIKKAPTAMVSRTPIMASYLIALRDLDEKIDNVLDIQFLHGYYEPTLLILYEPVRTCPGRIKVRSDTCVLVAISLNIQQRVHPIIWTVNSLPFDCLQVYPIQKPIGGCLVMTVNAVIYLNQSVPPYGVSLNSSADNSTAFPLKPQDGVRISLDCANFAFIDVDKLVISLRTGDLYVLTLCVDSMRTVRNFHFHKAAASVLTSCICVLHSEYIFLGSRLGNSLLLHFTEEDQSTVITLDEVEQQSEQQQRNLQDEDQNLEEIFDVDQLEMAPTQAKSRRIEDEELEVYGSGAKASVLQLRKFIFEVCDSLMNVAPINYMCAGERVEFEEDGVTLRPHAESLQDLKIELVAATGHSKNGALSVFVNCINPQIITSFELDGCLDVWTVFDDATKKSSRNDQHDFMLLSQRNSTLVLQTGQEINEIENTGFTVNQPTIFVGNLGQQRFIVQVTTRHVRLLQGTRLIQNVPIDVGSPVVQVSIADPYVCLRVLNGQVITLALRETRGTPRLAINKHTISSSPAVVAISAYKDLSGLFTVKGDDINLTGSSNSAFGHSFGGYMKAEPNMKVEDEEDLLYGDAGSAFKMNSMADLAKQSKQKNSDWWRRLLVQAKPSYWLVVARQSGTLEIYSMPDMKLVYLVNDVGNGSMVLTDAMEFVPISLTTQENSKAGIVQACMPQHANSPLPLELSVIGLGLNGERPLLLVRTRVELLIYQVFRYPKGHLKIRFRKMDQLNLLDQQPTHIDLDENDEQEEIESYQMQPKYVQKLRPFANVGGLSGVMVCGVNPCFVFLTFRGELRIHRLLGNGDVRSFAAFNNVNIPNGFLYFDTTYELKISVLPSYLSYDSVWPVRKVPLRCTPRQLVYHRENRVYCLITQTEEPMTKYYRFNGEDKELSEESRGERFIYPIGSQFEMVLISPETWEIVPDASITFEPWEHVTAFKIVKLSYEGTRSGLKEYLCIGTNFNYSEDITSRGNIHIYDIIEVVPEPGKPMTKFKIKEIFKKEQKGPVSAISDVLGFLVTGLGQKIYIWQLRDGDLIGVAFIDTNIYVHQIITVKSLIFIADVYKSISLLRFQEEYRTLSLASRDFNPLEVYGIEFMVDNSNLGFLVTDAERNIIVYMYQPEARESLGGQKLLRKADYHLGQVVNTMFRVQCHQKGLHQRQPFLYENKHFVVYGTLDGALGYCLPLPEKVYRRFLMLQNVLLSYQEHLCGLNPKEYRTLKSSKKQGINPSRCIIDGDLIWSYRLMANSERNEVAKKIGTRTEEILGDLLEIERLASVF
With B1, the binding result is listed as “binds”.

B2: CPSF6 (CG7185) (endogenous) (protein, UniProt Q9VSH4 1-652)
chain: MADVVLDLYAEDLDKDFAGQAQDEFGGDGVDLYDDIGGPTESAASGGGGGGTPSADGAAGPGSGEPGERNSGGPNGVYHQSSGSLTPTMNRRYQLYVGNLTWWTTDQDIANSLRDIGVSDLQEVKFFENRANGQSKGFSVISLGSESSLRAVLDQLPKKEMHGQAPVVTYPSKQALTQFESLQKTRPVPPPQQNGPPRGPAPPSMGGGPMPTGHPGGPQGGGPPGHPPRGMNSIMQPGQYRPQHMSQVPQVGGPNSGPPRMQPPMHPQGGLMGNQQPPPRYPSAQGQWPGQRPGGPRPGPPNGPPQRPMFQGGPMGMPVRGPAGPDWRRPPMHGGFPPQGPPRGLPPAPGPGGPHGAPAPHVNPAFFNQPGGPAQHPGMGGPPHGAPGPQPGMNMPPQQGMNMTPQHGPPPQFAQHGPRGPWPPPQGKPPGPFPDPQQMGPQLTEVEFEEVMSRNRTVSSSAIARAVSDAAAGEYSSAIETLVTAISLIKQSKVAHDERCKILISSLQDTLHGIEAKSYNRRERSRSRERSHRSRQRRERSTSRYRERSRERERDRDRERERDGGSYRERSRSRERERQAPDHYRDDSRSVRPRKSPEPVVAEAAEAPSSKRYYEDRERYRSSDRERRDRDRDRDRERERDRDRREEHRSRH
Consider B2, for which the binding entry is “binds”.

The values above are taken from paper PMC5392987.
